PubChem BioAssay AID1159618 | Peter MacCallum Cancer Centre, 2016
Here is a random part of 153 deposited reagents. Of all reagents, 111 (73%) are marked active. 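Migration not corrected for cell number; some knock-downs also lowered nuclei counts, so reduced closure may partly reflect fewer cells.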 Not all columns of the deposit are shown. The record does not give: the time to read-out.

- Aim: 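Retest earlier hits for effects on endothelial scratch closure in two cell types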 (follow-up of hits)
- System: human HMBEC blood microvascular and HDLEC dermal lymphatic endothelial cells
- Knock-down reagent: siRNA pool against human genes, 40 nM
- Measurement: 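Automated imaging of scratched monolayers; area filled by migrating cells relative to the mean of mock-transfected wells, averaged over two replicates; nuclei also counted per well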
- Direction: migration vs mock, HMBEC and migration vs mock, HDLEC: higher = more migration into the scratch
- Rule for the call: 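Called impaired when migration drops below 0.65 of mock in HMBEC, HDLEC or both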
- Meaning of the calls: active = migration impaired; inactive = no change

With STRC, how do the results read?
cell type with impaired migration: impaired only in blood endothelial cells; migration vs mock, HMBEC: 0.583; migration vs mock, HDLEC: 0.718; activity call: active

For PPP6R1, what does the deposit list?
cell type with impaired migration: no change in either cell type; migration vs mock, HMBEC: 0.687; migration vs mock, HDLEC: 0.714; activity call: inactive

What did the screen give for CDC42?
cell type with impaired migration: impaired only in lymphatic endothelial cells; migration vs mock, HMBEC: 0.743; migration vs mock, HDLEC: 0.246; activity call: active

What is on record for PLPPR2?
cell type with impaired migration: no change in either cell type; migration vs mock, HMBEC: 0.691; migration vs mock, HDLEC: 0.652; activity call: inactive

With PGBD5, what does the deposit list?
cell type with impaired migration: no change in either cell type; migration vs mock, HMBEC: 0.917; migration vs mock, HDLEC: 0.753; activity call: inactive

Which result is listed for SYNGAP1?
cell type with impaired migration: impaired in both blood and lymphatic cells; migration vs mock, HMBEC: 0.566; migration vs mock, HDLEC: 0.496; activity call: active

For KCNQ2, what was measured?
cell type with impaired migration: impaired only in blood endothelial cells; migration vs mock, HMBEC: 0.461; migration vs mock, HDLEC: 0.751; activity call: active

What did the screen give for HS3ST1?
cell type with impaired migration: no change in either cell type; migration vs mock, HMBEC: 0.694; migration vs mock, HDLEC: 0.762; activity call: inactive

For TMEM132E, what was measured?
cell type with impaired migration: impaired in both blood and lymphatic cells; migration vs mock, HMBEC: 0.468; migration vs mock, HDLEC: 0.148; activity call: active

For CARD10, what does the deposit list?
cell type with impaired migration: impaired in both blood and lymphatic cells; migration vs mock, HMBEC: 0.62; migration vs mock, HDLEC: 0.552; activity call: active

How did the screen score RTKN?
cell type with impaired migration: no change in either cell type; migration vs mock, HMBEC: 0.681; migration vs mock, HDLEC: 0.694; activity call: inactive

With BORCS6, how do the results read?
cell type with impaired migration: impaired in both blood and lymphatic cells; migration vs mock, HMBEC: 0.479; migration vs mock, HDLEC: 0.489; activity call: active

For FBXO7, what was measured?
cell type with impaired migration: impaired only in blood endothelial cells; migration vs mock, HMBEC: 0.513; migration vs mock, HDLEC: 0.683; activity call: active

How did the screen score TTLL3?
cell type with impaired migration: impaired in both blood and lymphatic cells; migration vs mock, HMBEC: 0.238; migration vs mock, HDLEC: 0.221; activity call: active

With PRKD3, how do the results read?
cell type with impaired migration: no change in either cell type; migration vs mock, HMBEC: 0.723; migration vs mock, HDLEC: 0.71; activity call: inactive

Which result is listed for CNKSR1?
cell type with impaired migration: impaired only in blood endothelial cells; migration vs mock, HMBEC: 0.335; migration vs mock, HDLEC: 0.692; activity call: active

With CCS, what was measured?
cell type with impaired migration: impaired only in blood endothelial cells; migration vs mock, HMBEC: 0.501; migration vs mock, HDLEC: 0.815; activity call: active

What is on record for PDGFRB?
cell type with impaired migration: impaired in both blood and lymphatic cells; migration vs mock, HMBEC: 0.621; migration vs mock, HDLEC: 0.534; activity call: active

With LPL, what does the deposit list?
cell type with impaired migration: impaired only in lymphatic endothelial cells; migration vs mock, HMBEC: 0.878; migration vs mock, HDLEC: 0.595; activity call: active

Records above whose target name starts with S or s:
STRC: cell type with impaired migration = impaired only in blood endothelial cells; migration vs mock, HMBEC = 0.583; migration vs mock, HDLEC = 0.718; activity call = active
SYNGAP1: cell type with impaired migration = impaired in both blood and lymphatic cells; migration vs mock, HMBEC = 0.566; migration vs mock, HDLEC = 0.496; activity call = active
